According to the supplement of paper PMC10849652:
Some of the results follow.

Chains of the proteins cited; added tags and fusions are not shown. Lines headed by an entry give the natural chain unless they say otherwise; changes in a name come on top.
UniProt Q96MX0: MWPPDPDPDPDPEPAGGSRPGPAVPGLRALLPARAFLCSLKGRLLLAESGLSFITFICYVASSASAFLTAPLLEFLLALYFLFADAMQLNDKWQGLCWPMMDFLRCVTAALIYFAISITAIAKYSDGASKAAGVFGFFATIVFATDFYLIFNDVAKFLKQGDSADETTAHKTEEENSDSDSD
UniProt O14647: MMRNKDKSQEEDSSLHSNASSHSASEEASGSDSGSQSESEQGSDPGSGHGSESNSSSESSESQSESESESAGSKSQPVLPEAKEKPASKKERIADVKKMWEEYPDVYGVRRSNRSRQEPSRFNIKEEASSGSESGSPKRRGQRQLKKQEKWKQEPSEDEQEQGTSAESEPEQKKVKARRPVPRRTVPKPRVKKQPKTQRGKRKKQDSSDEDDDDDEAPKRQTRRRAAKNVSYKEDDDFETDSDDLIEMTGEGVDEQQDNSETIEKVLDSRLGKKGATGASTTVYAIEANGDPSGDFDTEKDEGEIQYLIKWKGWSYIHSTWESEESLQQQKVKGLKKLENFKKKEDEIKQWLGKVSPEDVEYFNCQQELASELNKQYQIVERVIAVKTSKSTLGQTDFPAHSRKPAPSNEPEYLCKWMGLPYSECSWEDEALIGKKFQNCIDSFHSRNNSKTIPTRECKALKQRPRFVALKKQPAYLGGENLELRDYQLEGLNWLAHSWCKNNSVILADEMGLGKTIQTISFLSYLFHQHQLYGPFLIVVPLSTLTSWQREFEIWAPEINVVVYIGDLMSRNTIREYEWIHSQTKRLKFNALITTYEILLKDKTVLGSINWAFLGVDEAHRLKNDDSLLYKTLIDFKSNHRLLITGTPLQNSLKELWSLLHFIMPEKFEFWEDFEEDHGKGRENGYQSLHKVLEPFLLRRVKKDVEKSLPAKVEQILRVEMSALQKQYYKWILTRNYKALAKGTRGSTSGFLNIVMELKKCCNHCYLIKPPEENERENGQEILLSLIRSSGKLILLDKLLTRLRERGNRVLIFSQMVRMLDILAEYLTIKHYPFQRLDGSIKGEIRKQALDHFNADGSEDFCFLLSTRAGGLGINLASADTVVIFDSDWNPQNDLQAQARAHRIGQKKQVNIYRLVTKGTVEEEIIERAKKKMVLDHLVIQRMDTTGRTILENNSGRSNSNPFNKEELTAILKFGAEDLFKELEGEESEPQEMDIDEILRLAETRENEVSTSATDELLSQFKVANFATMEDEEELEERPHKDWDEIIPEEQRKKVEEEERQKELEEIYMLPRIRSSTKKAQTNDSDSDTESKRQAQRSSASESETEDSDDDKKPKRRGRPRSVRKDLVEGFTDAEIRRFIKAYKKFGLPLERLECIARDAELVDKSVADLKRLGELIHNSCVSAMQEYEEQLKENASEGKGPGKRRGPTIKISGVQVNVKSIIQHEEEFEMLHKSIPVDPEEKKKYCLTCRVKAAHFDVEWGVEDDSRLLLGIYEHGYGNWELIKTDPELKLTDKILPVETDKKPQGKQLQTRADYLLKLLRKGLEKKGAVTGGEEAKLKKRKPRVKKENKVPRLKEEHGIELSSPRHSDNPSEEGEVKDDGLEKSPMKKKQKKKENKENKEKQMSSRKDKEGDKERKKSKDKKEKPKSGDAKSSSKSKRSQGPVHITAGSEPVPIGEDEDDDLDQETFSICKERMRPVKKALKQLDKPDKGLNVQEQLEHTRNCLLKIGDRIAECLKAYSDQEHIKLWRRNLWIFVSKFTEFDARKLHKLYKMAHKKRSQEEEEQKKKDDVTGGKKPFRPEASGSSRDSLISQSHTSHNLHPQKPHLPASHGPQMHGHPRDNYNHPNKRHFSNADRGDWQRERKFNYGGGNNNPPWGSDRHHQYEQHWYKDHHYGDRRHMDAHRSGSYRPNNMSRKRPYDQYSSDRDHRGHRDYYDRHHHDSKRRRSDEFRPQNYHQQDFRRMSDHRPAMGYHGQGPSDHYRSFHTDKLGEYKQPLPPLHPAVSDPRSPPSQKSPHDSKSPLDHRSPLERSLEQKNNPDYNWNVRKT
UniProt Q86WJ1: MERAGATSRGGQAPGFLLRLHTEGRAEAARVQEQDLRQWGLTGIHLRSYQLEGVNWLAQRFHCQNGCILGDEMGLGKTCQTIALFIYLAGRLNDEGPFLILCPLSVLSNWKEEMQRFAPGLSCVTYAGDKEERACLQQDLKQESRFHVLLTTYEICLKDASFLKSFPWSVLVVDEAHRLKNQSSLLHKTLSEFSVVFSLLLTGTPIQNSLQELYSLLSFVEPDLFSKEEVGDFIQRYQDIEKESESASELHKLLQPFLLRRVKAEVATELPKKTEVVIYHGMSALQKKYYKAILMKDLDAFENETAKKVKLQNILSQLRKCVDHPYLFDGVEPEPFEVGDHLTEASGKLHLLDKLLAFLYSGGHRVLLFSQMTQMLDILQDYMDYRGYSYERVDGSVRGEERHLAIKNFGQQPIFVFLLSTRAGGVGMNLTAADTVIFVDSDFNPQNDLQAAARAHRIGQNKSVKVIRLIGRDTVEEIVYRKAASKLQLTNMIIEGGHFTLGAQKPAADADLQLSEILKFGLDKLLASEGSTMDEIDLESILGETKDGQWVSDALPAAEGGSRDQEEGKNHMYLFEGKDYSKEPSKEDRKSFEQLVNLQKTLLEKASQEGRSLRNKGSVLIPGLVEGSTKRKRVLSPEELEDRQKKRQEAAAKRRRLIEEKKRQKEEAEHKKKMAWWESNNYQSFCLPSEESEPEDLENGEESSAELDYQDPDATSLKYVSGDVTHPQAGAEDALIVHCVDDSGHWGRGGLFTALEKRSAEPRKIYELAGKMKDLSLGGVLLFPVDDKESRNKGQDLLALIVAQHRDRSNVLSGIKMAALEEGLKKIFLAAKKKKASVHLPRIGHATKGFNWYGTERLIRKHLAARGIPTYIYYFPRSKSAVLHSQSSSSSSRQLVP
UniProt Q9Y259: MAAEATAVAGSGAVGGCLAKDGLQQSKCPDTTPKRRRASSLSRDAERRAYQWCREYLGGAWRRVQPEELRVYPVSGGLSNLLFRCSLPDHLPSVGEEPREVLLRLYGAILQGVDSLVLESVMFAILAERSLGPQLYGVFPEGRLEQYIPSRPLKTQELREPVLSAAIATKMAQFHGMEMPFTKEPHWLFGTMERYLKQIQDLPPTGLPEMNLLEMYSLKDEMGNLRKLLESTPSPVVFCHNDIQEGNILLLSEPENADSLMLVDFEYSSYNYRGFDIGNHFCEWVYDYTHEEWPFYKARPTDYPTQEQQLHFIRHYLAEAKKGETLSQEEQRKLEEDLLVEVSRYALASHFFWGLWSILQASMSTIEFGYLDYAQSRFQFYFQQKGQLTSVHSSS
UniProt O14757: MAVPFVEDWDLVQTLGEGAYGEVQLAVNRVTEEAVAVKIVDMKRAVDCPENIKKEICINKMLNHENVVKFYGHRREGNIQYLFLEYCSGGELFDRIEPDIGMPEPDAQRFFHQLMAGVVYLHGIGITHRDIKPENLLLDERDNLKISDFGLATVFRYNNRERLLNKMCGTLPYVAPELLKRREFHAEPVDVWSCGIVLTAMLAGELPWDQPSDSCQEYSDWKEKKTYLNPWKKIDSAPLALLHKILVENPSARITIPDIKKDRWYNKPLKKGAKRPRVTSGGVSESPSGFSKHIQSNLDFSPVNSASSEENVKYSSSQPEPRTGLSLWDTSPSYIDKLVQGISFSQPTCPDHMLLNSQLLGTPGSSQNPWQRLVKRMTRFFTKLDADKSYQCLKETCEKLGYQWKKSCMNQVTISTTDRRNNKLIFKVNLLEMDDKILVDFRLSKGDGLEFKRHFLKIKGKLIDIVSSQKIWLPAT
UniProt Q8WYQ3: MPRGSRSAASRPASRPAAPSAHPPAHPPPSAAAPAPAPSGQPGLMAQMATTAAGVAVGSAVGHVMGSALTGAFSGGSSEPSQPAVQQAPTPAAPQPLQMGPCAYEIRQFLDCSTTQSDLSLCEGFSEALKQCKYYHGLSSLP
UniProt Q9Y4C5: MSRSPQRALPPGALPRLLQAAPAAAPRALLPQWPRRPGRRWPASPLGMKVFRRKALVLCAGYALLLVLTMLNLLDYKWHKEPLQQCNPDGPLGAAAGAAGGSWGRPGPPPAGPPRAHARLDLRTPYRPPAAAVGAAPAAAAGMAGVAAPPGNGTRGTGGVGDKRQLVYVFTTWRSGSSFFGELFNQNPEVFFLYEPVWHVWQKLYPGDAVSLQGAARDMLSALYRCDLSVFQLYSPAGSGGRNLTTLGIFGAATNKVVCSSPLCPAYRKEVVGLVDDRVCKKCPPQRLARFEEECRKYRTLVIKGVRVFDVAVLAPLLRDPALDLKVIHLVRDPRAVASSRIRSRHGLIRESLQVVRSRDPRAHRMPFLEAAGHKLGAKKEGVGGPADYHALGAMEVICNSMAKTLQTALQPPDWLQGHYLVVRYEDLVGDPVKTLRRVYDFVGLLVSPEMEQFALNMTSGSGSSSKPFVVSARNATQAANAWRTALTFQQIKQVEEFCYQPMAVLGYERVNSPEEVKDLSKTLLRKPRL
UniProt Q9BRQ6: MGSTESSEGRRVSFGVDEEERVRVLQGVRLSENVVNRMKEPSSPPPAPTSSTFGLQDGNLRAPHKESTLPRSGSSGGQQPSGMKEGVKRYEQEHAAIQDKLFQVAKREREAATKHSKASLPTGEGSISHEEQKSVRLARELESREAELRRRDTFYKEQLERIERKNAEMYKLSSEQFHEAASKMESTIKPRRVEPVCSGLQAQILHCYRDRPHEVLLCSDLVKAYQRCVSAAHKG
UniProt Q8N1G2: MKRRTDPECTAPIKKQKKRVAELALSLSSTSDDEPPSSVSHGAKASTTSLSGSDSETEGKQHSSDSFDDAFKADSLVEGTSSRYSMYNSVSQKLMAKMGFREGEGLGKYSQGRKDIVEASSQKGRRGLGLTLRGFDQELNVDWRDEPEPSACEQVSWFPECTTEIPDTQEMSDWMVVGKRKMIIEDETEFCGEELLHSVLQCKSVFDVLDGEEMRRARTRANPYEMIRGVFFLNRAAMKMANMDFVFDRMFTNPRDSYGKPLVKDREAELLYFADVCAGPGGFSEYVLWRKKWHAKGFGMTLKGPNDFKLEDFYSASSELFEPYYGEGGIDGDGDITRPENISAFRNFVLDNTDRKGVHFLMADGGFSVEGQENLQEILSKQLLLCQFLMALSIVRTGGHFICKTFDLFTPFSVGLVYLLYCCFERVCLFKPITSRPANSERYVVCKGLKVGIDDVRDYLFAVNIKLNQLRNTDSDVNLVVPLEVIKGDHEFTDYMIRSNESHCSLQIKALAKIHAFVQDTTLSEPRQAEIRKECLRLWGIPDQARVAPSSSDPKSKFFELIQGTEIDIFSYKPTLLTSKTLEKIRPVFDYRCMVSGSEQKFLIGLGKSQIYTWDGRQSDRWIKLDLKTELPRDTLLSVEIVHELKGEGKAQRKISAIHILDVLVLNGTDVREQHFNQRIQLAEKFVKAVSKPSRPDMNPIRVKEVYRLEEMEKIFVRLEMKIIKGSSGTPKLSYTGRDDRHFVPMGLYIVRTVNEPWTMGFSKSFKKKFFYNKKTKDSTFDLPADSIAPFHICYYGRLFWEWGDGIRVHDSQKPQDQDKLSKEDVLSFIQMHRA
UniProt P51788: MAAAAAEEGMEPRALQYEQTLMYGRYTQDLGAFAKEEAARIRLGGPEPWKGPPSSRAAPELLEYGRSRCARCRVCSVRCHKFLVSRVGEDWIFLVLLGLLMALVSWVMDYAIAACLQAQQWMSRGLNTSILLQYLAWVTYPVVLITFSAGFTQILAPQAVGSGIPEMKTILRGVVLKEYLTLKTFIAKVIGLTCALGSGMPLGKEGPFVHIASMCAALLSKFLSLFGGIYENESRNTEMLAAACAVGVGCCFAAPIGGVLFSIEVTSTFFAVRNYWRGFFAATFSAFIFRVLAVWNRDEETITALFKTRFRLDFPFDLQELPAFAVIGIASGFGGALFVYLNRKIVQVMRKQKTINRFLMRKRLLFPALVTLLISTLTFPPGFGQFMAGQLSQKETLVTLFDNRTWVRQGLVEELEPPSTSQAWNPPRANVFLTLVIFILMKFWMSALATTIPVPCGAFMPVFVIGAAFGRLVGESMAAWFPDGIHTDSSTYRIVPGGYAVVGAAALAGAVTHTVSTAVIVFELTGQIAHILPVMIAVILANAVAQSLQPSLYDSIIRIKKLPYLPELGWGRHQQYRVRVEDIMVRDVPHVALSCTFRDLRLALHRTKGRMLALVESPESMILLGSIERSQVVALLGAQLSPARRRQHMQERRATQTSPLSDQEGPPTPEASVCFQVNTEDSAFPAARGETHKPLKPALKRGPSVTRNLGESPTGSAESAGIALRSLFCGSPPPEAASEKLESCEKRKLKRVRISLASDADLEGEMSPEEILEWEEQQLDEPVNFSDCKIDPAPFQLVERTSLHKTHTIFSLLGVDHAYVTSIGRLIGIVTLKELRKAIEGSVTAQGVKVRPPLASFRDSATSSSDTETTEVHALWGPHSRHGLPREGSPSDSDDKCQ
UniProt Q8N4Q1: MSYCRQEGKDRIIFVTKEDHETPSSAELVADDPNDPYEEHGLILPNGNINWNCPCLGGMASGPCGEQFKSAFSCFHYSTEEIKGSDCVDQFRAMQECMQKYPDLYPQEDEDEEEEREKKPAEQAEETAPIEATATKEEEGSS

How the values were obtained:
Assay in all cases: log2 fold change, soluble protein after heating vs DMSO (PISA); higher = thermal stabilisation; K562 lysate, 10 uM; active = over 0.2 and 3.5 SD of the protein, either way, in both replicates (recomputed)
[1] = compound: C1=CC=C(C=C1)[C@H](COC2=CC3=C(C=C2)NC(=O)N3)NC(=O)C4=CC=CN(C4=O)CC5=CC(=C(C=C5)F)F
Procedure, shortened: (§1)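 K562 pellets were dounce-homogenised in PBS pH 7.4 containing 1 mM MgCl2, and the crude extract, at 1 mg/mL protein, was exposed to 10 μM compound for 30 min. Aliquots were heated for 3 min across 48°C-58°C, pooled, brought to 0.5% NP-40 at 4°C and spun at 21,000xg for 90 min, with the supernatant taken as soluble protein. TMTpro 16plex LC-MS/MS with equalised channel sums quantified that protein. Values are log-two fold changes in thermal stability relative to solvent controls, taken from duplicates.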

[2] = compound: CC1=C(SC2=C1C(=N[C@H](C3=NN=C(N32)C)CC(=O)N)C4=CC=C(C=C4)Cl)C
Procedure, shortened: as §1

[3] = compound: CC1=C2C(=CC=C1)N=C(N(C2=O)C3=CC=CC=C3C)CN4C=NC5=C(N=CN=C54)N
Procedure, shortened: as §1

[4] = compound: Cc1sc2c(c1C)C(c1ccc(Cl)cc1)=N[C@@H](CC(=O)OC(C)(C)C)c1nnc(C)n1-2
Procedure, shortened: as §1

[5] = compound: c1ccc([C@@H]2C[C@H]2NC2CCNCC2)cc1
Procedure, shortened: as §1

Measured: log2 fold change

CHD5 (UniProt Q8TDI0)
inactive: [1] -0.039 | [2] 0.003 | [3] -0.002 | [4] 0.085 | [5] 0.032

CHEK2 (UniProt O96017)
inactive: [1] -0.02 | [2] -0.041 | [3] -0.016 | [4] 0.006 | [5] 0.014

CIB1 (UniProt Q99828)
active: [2] -0.272
inactive: [1] -0.128 | [3] -0.039 | [4] 0.023 | [5] 0.03

CISD2 (UniProt Q8N5K1)
inactive: [1] 0.022 | [2] -0.015 | [3] -0.003 | [4] -0.009 | [5] -0.017

CMPK2 (UniProt Q5EBM0)
inactive: [1] 0.008 | [2] 0.091 | [3] -0.024 | [4] 0.039 | [5] -0.098

CMTM3 (UniProt Q96MX0)
inactive: [1] 0.058 | [2] -0.097 | [3] -0.018 | [4] 0.015 | [5] -0.024

CLGN (UniProt O14967)
inactive: [1] 0.063 | [2] 0.047 | [3] 0.126 | [4] -0.011 | [5] -0.05

CLPB isoform 2 (UniProt Q9H078)
inactive: [1] -0.031 | [2] -0.012 | [3] 0 | [4] 0.094 | [5] 0.079

CKS1B (UniProt P61024)
inactive: [1] 0.017 | [2] -0.074 | [3] -0.058 | [4] 0.108 | [5] 0.194

CHMP2B (UniProt Q9UQN3)
inactive: [1] 0.012 | [2] -0.005 | [3] -0.032 | [4] 0.023 | [5] 0.023

CHIC2 (UniProt Q9UKJ5)
inactive: [1] -0.073 | [2] 0.154 | [3] -0.033 | [4] -0.014 | [5] -0.012

CHST11 (UniProt Q9NPF2)
inactive: [1] 0.037 | [2] -0.158 | [3] 0.075 | [4] -0.091 | [5] 0

Eleven successive entries already listed:
CHEK2 (UniProt O96017)
inactive: [1] -0.02 | [2] -0.041 | [3] -0.016 | [4] 0.006 | [5] 0.014

CIB1 (UniProt Q99828)
active: [2] -0.272
inactive: [1] -0.128 | [3] -0.039 | [4] 0.023 | [5] 0.03

CISD2 (UniProt Q8N5K1)
inactive: [1] 0.022 | [2] -0.015 | [3] -0.003 | [4] -0.009 | [5] -0.017

CMPK2 (UniProt Q5EBM0)
inactive: [1] 0.008 | [2] 0.091 | [3] -0.024 | [4] 0.039 | [5] -0.098

CMTM3 (UniProt Q96MX0)
inactive: [1] 0.058 | [2] -0.097 | [3] -0.018 | [4] 0.015 | [5] -0.024

CLGN (UniProt O14967)
inactive: [1] 0.063 | [2] 0.047 | [3] 0.126 | [4] -0.011 | [5] -0.05

CLPB isoform 2 (UniProt Q9H078)
inactive: [1] -0.031 | [2] -0.012 | [3] 0 | [4] 0.094 | [5] 0.079

CKS1B (UniProt P61024)
inactive: [1] 0.017 | [2] -0.074 | [3] -0.058 | [4] 0.108 | [5] 0.194

CHMP2B (UniProt Q9UQN3)
inactive: [1] 0.012 | [2] -0.005 | [3] -0.032 | [4] 0.023 | [5] 0.023

CHIC2 (UniProt Q9UKJ5)
inactive: [1] -0.073 | [2] 0.154 | [3] -0.033 | [4] -0.014 | [5] -0.012

CHST11 (UniProt Q9NPF2)
inactive: [1] 0.037 | [2] -0.158 | [3] 0.075 | [4] -0.091 | [5] 0

Additional results follow.

CMC1 (UniProt Q7Z7K0)
inactive: [1] 0.051 | [2] -0.003 | [3] 0.114 | [4] -0.046 | [5] -0.061

CHD2 (UniProt O14647)
inactive: [1] -0.007 | [2] -0.238 | [3] -0.053 | [4] 0.054 | [5] -0.038

CLPX (UniProt O76031)
inactive: [1] -0.073 | [2] -0.009 | [3] -0.027 | [4] 0.035 | [5] 0.021

CHMP3 (UniProt Q9Y3E7)
inactive: [1] -0.01 | [2] 0.052 | [3] -0.045 | [4] -0.065 | [5] -0.016

CMBL (UniProt Q96DG6)
inactive: [1] -0.01 | [2] -0.011 | [3] -0.027 | [4] -0.041 | [5] -0.078

CHMP1A (UniProt Q9HD42)
inactive: [1] 0.004 | [2] 0.007 | [3] -0.005 | [4] 0.057 | [5] 0.009

CHCHD2P9 (UniProt Q5T1J5)
inactive: [1] 0.01 | [2] -0.01 | [3] -0.016 | [4] 0.015 | [5] 0.005

CHD1L (UniProt Q86WJ1)
inactive: [1] -0.012 | [2] 0.036 | [3] 0.037 | [4] -0.009 | [5] 0.052

CMIP (UniProt Q8IY22)
inactive: [1] -0.012 | [2] -0.006 | [3] -0.002 | [4] -0.029 | [5] 0.032

CHCHD1 (UniProt Q96BP2)
inactive: [1] -0.026 | [2] 0.024 | [3] -0.04 | [4] -0.091
active: [5] 0.627

CHMP6 (UniProt Q96FZ7)
inactive: [1] 0.058 | [2] -0.047 | [3] 0.012 | [4] -0.009 | [5] -0.08

CHKB (UniProt Q9Y259)
inactive: [1] -0.056 | [2] 0.007 | [3] 0.047 | [4] -0.034 | [5] -0.05

CHORDC1 (UniProt Q9UHD1)
inactive: [1] 0.025 | [2] 0.006 | [3] -0.01 | [4] 0.017 | [5] 0.037

CHEK1 (UniProt O14757)
inactive: [1] 0.025 | [2] 0.021 | [3] 0.006 | [4] -0.04 | [5] 0

CLIC1 (UniProt O00299)
inactive: [1] 0.019 | [2] 0.025 | [3] 0.001 | [4] -0.004 | [5] -0.021

CIAO1 (UniProt O76071)
inactive: [1] -0.086 | [2] 0.052 | [3] -0.022 | [4] -0.023 | [5] -0.023

CKM (UniProt P06732)
inactive: [1] 0.008 | [2] -0.027 | [3] -0.109 | [4] -0.169 | [5] 0

CLINT1 isoform 3 (UniProt Q14677)
inactive: [1] 0.051 | [2] -0.049 | [3] -0.006 | [4] 0.018 | [5] 0.009

CLASP1 (UniProt Q7Z460)
inactive: [1] -0.019 | [2] 0.011 | [3] 0.022 | [4] -0.026 | [5] -0.007

CIAO3 (UniProt Q9H6Q4)
inactive: [1] -0.007 | [2] 0.037 | [3] 0.007 | [4] 0.019 | [5] -0.015

CHURC1 isoform 2 (UniProt Q8WUH1)
inactive: [1] 0.045 | [2] -0.05 | [3] -0.046 | [4] -0.014 | [5] -0.063

CIP2A (UniProt Q8TCG1)
inactive: [1] -0.03 | [2] -0.002 | [3] -0.008 | [4] -0.021 | [5] 0.018

CHM (UniProt P24386)
inactive: [1] -0.035 | [2] 0.11 | [3] 0.158 | [4] -0.05 | [5] -0.015

CLASP2 isoform 3 (UniProt O75122)
inactive: [1] 0.002 | [2] -0.028 | [3] 0.079 | [4] -0.003 | [5] -0.061

CHCHD10 (UniProt Q8WYQ3)
inactive: [1] -0.033 | [2] 0.097 | [3] -0.004 | [4] -0.01 | [5] 0.031

CHERP (UniProt Q8IWX8)
inactive: [1] -0.041 | [2] 0.018 | [3] -0.011 | [4] 0.003 | [5] 0.025

CLP1 (UniProt Q92989)
inactive: [1] -0.023 | [2] -0.002 | [3] -0.023 | [4] 0.026 | [5] -0.1

CIT isoform 4 (UniProt O14578)
inactive: [1] -0.023 | [2] 0.071 | [3] 0.021 | [4] 0.007 | [5] -0.001

CHRAC1 (UniProt Q9NRG0)
inactive: [1] 0.03 | [2] 0.068 | [3] 0.025 | [4] 0.043 | [5] 0.083

CKAP5 (UniProt Q14008)
inactive: [1] -0.008 | [2] -0.019 | [3] 0.01 | [4] 0.014 | [5] 0.048

CHST2 (UniProt Q9Y4C5)
inactive: [1] -0.067 | [2] -0.128 | [4] -0.001 | [5] 0

CLCC1 (UniProt Q96S66)
inactive: [1] 0.023 | [2] -0.014 | [3] 0.022 | [4] -0.007 | [5] -0.041

CIC (UniProt I3L2J0)
inactive: [1] -0.03 | [2] -0.034 | [3] -0.109 | [4] 0.042 | [5] -0.02

CKB (UniProt P12277)
inactive: [1] -0.009 | [2] 0.013 | [3] -0.017 | [4] 0.024 | [5] 0.054

CHCHD6 (UniProt Q9BRQ6)
inactive: [1] 0.078 | [2] 0.062 | [3] -0.01 | [4] 0.064 | [5] -0.101

CLPTM1 (UniProt O96005)
inactive: [1] -0.044 | [2] -0.014 | [3] -0.058 | [4] -0.018 | [5] -0.072

CMTR1 (UniProt Q8N1G2)
inactive: [1] 0.011 | [2] -0.008 | [3] 0.018 | [4] 0.004 | [5] 0.009

CHMP7 (UniProt Q8WUX9)
inactive: [1] -0.225 | [2] 0.107 | [3] -0.001 | [4] 0.014 | [5] 0.035

CLSPN (UniProt Q9HAW4)
inactive: [1] 0.045 | [2] -0.022 | [3] -0.051 | [4] 0.029 | [5] -0.036

CLCN2 (UniProt P51788)
inactive: [1] 0.081 | [2] 0.002 | [4] -0.066 | [5] 0

CHCHD4 isoform 2 (UniProt Q8N4Q1)
inactive: [1] 0.04 | [2] -0.076 | [3] -0.101 | [4] -0.189 | [5] -0.168
